# Experimental data published in patent US20230250186A1.
# The chains behind the UniProt entries cited, without tags or fusion partners. Residues count along the entry.
# UniProt P28907, residues 43-300: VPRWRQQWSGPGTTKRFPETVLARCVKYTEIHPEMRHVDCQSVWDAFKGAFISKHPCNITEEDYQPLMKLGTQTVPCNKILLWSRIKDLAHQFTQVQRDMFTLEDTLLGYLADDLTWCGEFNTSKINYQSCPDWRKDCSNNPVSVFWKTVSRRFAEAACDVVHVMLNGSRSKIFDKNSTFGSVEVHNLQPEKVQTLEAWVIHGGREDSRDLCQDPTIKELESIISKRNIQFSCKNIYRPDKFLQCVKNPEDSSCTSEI
# Results are given in words; binding and its absence hold for the method and conditions named. Some results given as binding are weak or reduced against the parent protein; the word gives no strength.
# Biological target: antigen CD38 (UniProt P28907)
# Assay: binding curve of FIG. 9; method not clearly stated
row,binding,Binder
1,binds,"SG003M1 antibody (antibody, human IgG1, kappa, V domains shown) VH: QVQLLESGGGLVQPGGSLKLSCVASGYNFSLYYMNWVRQAPGKGLEWIGKIQPESSTIQYTPSLKDKFFISRDNAKNTLYLQMTKVRSEDTALYYCARLWIGSGGFDYWGQGTTLTVSS VL: EIVMTQSPASLSASLGQRASISCRASNSVSSSAYSYVHWYQQKSGQPPKLLIYLASNIQSGVPARFSGSGSGTDFTLTIHPVESEDVATYYCHHSRQLPSTFGSGTKLEIKR"
2,binds,"SG003M2 antibody (antibody, human IgG1, kappa, V domains shown) VH: QVQLLESGGGLVQPGGSLKLSCVASGFDFSLYWMNWVRQAPGKGLEWIGKISPNSSTINYSPSLKDKFFISRDNAKNTLYLQMTKVRSEDTALYYCARLYIASGGFDYWGQGTTLTVSS VL: EIVMTQSPASLSASLGQRATISCRASSSVSSSAYSYVHWYQQKSGQPPKLLIYLASDLQSGVPARFSGSGSGTDFTLTIHPVESEDVATYYCHHSRELPYSFGSGTKLEIKR"
3,binds,"SG003M3 antibody (antibody, human IgG1, kappa, V domains shown) VH: QVQLLESGGGLVQPGGSLKLSCVASGFDFSLYWMNWVRQAPGKGLEWIGKISPDSSSLNYTPSVKDKFFISRDNAKNTLYLQMTKVRSEDTALYYCARLWIATGGYNYWGQGTTLTVSS VL: EIVMTQSPASLSASLGQRATISCRASNSVSTSAFSYVHWYQQKSGQPPKLLIYLASNLESGVPARFSGSGSGTDFTLTIHPVESEDVATYYCHHSREVPFTFGSGTKLEIKR"
